In paper PMC5714945, “A homologue of the Parkinson’s disease-associated protein LRRK2 undergoes a monomer-dimer transition during GTP turnover” (Nature Communications, 2017):
Substitutions are numbered along the chain they refer to. Numbers in names are those of the source. Results are given in words; binding and its absence hold for the method and conditions named. Some results given as binding are weak or reduced against the parent protein; the word gives no strength.

Key:
[1] = target: Roco protein from Chlorobium tepidum (CtRoco), full length (Chlorobium tepidum) (UniProt Q8KC98); test: negative-stain EM; CtRoco at 0.01 mg ml^-1 (0.08 µM) pre-incubated with 1 mM GDP; uranyl formate stain; class averages; both purified
[2] = target: Roco protein from Chlorobium tepidum (CtRoco), full length (Chlorobium tepidum) (UniProt Q8KC98); test: negative-stain EM; time-resolved, multiple turnover: 1 mM GTP or GppNHp added to 0.01 mg ml^-1 CtRoco, samples taken every 2 min, 25 °C; both purified
[3] = target: Roco protein from Chlorobium tepidum (CtRoco), full length (Chlorobium tepidum) (UniProt Q8KC98); test: SEC-MALS; GppNHp-bound (1 mM pre-incubation, 200 µM in buffer); 10 µl of 8 mg ml^-1 injected on a Bio SEC-3 column; buffer as for SEC-SAXS; both purified
[4] = target: Roco protein from Chlorobium tepidum (CtRoco), full length (Chlorobium tepidum) (UniProt Q8KC98); test: negative-stain EM; time-resolved, single turnover: 1 µM CtRoco mixed with 1 µM GTP, samples at 0-4500 s diluted to 0.01 mg ml^-1 right before spotting, 25 °C; both purified
[5] = target: Roco protein from Chlorobium tepidum (CtRoco), full length (Chlorobium tepidum) (UniProt Q8KC98); test: AUC; sedimentation velocity, with 100 µM GppNHp; 20 °C, 20 mM HEPES pH 7.5, 150 mM NaCl, 5 mM MgCl2, 5% glycerol; 0.57 mg ml^-1 (4.5 µM) CtRoco or 0.3 mg ml^-1 (4.6 µM) CtRoc-COR; both purified
[6] = target: Roco protein from Chlorobium tepidum (CtRoco), full length (Chlorobium tepidum) (UniProt Q8KC98); test: SEC-SAXS; GppNHp-bound: pre-incubated with 1 mM GppNHp, 200 µM GppNHp in the buffer; 50 µl of 8 mg ml^-1 injected on a Bio SEC-3 column; 20 mM Hepes pH 7.5, 150 mM NaCl, 5 mM MgCl2, 5% glycerol, 1 mM DTT; both purified
[7] = target: CtRoco L487A mutant, full length (Chlorobium tepidum) (UniProt Q8KC98); test: SEC-SAXS; nucleotide-free protein; 50 µl of 8 mg ml^-1 injected on a Bio SEC-3 column; 20 mM Hepes pH 7.5, 150 mM NaCl, 5 mM MgCl2, 5% glycerol, 1 mM DTT; mass from Porod volume; both purified
[8] = target: CtRoco L487A mutant, full length (Chlorobium tepidum) (UniProt Q8KC98); test: SEC-SAXS; GDP-bound: pre-incubated with 1 mM GDP, 200 µM GDP in the buffer; 50 µl of 8 mg ml^-1 injected on a Bio SEC-3 column; 20 mM Hepes pH 7.5, 150 mM NaCl, 5 mM MgCl2, 5% glycerol, 1 mM DTT; both purified
[9] = target: CtRoco L487A mutant, full length (Chlorobium tepidum) (UniProt Q8KC98); test: SEC-SAXS; GppNHp-bound: pre-incubated with 1 mM GppNHp, 200 µM GppNHp in the buffer; 50 µl of 8 mg ml^-1 injected on a Bio SEC-3 column; 20 mM Hepes pH 7.5, 150 mM NaCl, 5 mM MgCl2, 5% glycerol, 1 mM DTT; both purified
[10] = target: Roc-COR domain construct of the Chlorobium tepidum Roco protein (CtRoc-COR) (Chlorobium tepidum) (UniProt Q8KC98); test: SEC-MALS; GppNHp-bound (1 mM pre-incubation, 200 µM in buffer); 10 µl of 8 mg ml^-1 injected on a Bio SEC-3 column; buffer as for SEC-SAXS; both purified
[11] = target: Roc-COR domain construct of the Chlorobium tepidum Roco protein (CtRoc-COR) (Chlorobium tepidum) (UniProt Q8KC98); test: AUC; sedimentation velocity, with 100 µM GppNHp; 20 °C, 20 mM HEPES pH 7.5, 150 mM NaCl, 5 mM MgCl2, 5% glycerol; 0.57 mg ml^-1 (4.5 µM) CtRoco or 0.3 mg ml^-1 (4.6 µM) CtRoc-COR; both purified

B1: Roco protein from Chlorobium tepidum (CtRoco), full length (natural protein, UniProt Q8KC98 1-1102, looked up)
chain: MSDLDVIRQIEQELGMQLEPVDKLKWYSKGYKLDKDQRVTAIGLYDCGSDTLDRIIQPLESLKSLSELSLSSNQITDISPLASLNSLSMLWLDRNQITDIAPLASLNSLSMLWLFGNKISDIAPLESLKSLTELQLSSNQITDIAPLASLKSLTELSLSGNNISDIAPLESLKSLTELSLSSNQITDIAPLASLKSLTELSLSSNQISDIAPLESLKSLTELQLSRNQISDIAPLESLKSLTELQLSSNQITDIAPLASLKSLTELQLSRNQISDIAPLESLNSLSKLWLNGNQITDIAPLASLNSLTELELSSNQITDIAPLASLKSLSTLWLSSNQISDIAPLASLESLSELSLSSNQISDISPLASLNSLTGFDVRRNPIKRLPETITGFDMEILWNDFSSSGFITFFDNPLESPPPEIVKQGKEAVRQYFQSIEEARSKGEALVHLQEIKVHLIGDGMAGKTSLLKQLIGETFDPKESQTHGLNVVTKQAPNIKGLENDDELKECLFHFWDFGGQEIMHASHQFFMTRSSVYMLLLDSRTDSNKHYWLRHIEKYGGKSPVIVVMNKIDENPSYNIEQKKINERFPAIENRFHRISCKNGDGVESIAKSLKSAVLHPDSIYGTPLAPSWIKVKEKLVEATTAQRYLNRTEVEKICNDSGITDPGERKTLLGYLNNLGIVLYFEALDLSEIYVLDPHWVTIGVYRIINSSKTKNGHLNTSALGYILNEEQIRCDEYDPAKNNKFTYTLLEQRYLLDIMKQFELCYDEGKGLFIIPSNLPTQIDNEPEITEGEPLRFIMKYDYLPSTIIPRLMIAMQHQILDRMQWRYGMVLKSQDHEGALAKVVAETKDSTITIAIQGEPRCKREYLSIIWYEIKKINANFTNLDVKEFIPLPGHPDELVEYKELLGLEKMGRDEYVSGKLEKVFSVSKMLDSVISKEERNKERLMGDINIKLENIGNPTIPIHQQVEVNVSQETVQHVENLQGFFENLKADILREAELEIDDPKERKRLANELELAENAITKMDAAVKSGKNKLKPDVKDRLGEFIDNLANENSRLRKGIALVMNGAEKVQKLARYYNNVAPFFDLPSVPPVLLGKEKT
notes: Roco protein from Chlorobium tepidum (CtRoco), a.a; 1-1102: LRR domain (1-411), Roc-COR module (412-946), C-terminal region (947-1102); also called CtRoco wt; C. tepidum Roco protein; source: E. coli BL21 (DE3), purified (Ni-NTA IMAC, EDTA treatment, Superdex S200 SEC)
Q: With B1 as the binder, how does the binding [1] read?
A: binds

Q: What about the binding [2] of the same binder?
A: binds weakly

Q: What about the binding [3] of the same binder?
A: binds

Q: What about the binding [4] of the same binder?
A: binds

Q: And the binding [5]?
A: binds

Q: What about the binding [6] of the same binder?
A: binds

B2: CtRoco L487A mutant, full length (natural protein, Chlorobium tepidum, UniProt Q8KC98 1-1102, looked up)
chain: B1 chain with L487A
notes: Roco protein from Chlorobium tepidum (CtRoco), a.a; 1-1102, with L487A (analogue of LRRK2 I1371V); also called L487A CtRoco
Q: For B2, which binding [7] is on record?
A: binds

Q: And the binding [8]?
A: binds

Q: And the binding [9]?
A: binds

B3: Roc-COR domain construct of the Chlorobium tepidum Roco protein (CtRoc-COR) (domain or fragment, UniProt Q8KC98 412-946, looked up)
chain: DNPLESPPPEIVKQGKEAVRQYFQSIEEARSKGEALVHLQEIKVHLIGDGMAGKTSLLKQLIGETFDPKESQTHGLNVVTKQAPNIKGLENDDELKECLFHFWDFGGQEIMHASHQFFMTRSSVYMLLLDSRTDSNKHYWLRHIEKYGGKSPVIVVMNKIDENPSYNIEQKKINERFPAIENRFHRISCKNGDGVESIAKSLKSAVLHPDSIYGTPLAPSWIKVKEKLVEATTAQRYLNRTEVEKICNDSGITDPGERKTLLGYLNNLGIVLYFEALDLSEIYVLDPHWVTIGVYRIINSSKTKNGHLNTSALGYILNEEQIRCDEYDPAKNNKFTYTLLEQRYLLDIMKQFELCYDEGKGLFIIPSNLPTQIDNEPEITEGEPLRFIMKYDYLPSTIIPRLMIAMQHQILDRMQWRYGMVLKSQDHEGALAKVVAETKDSTITIAIQGEPRCKREYLSIIWYEIKKINANFTNLDVKEFIPLPGHPDELVEYKELLGLEKMGRDEYVSGKLEKVFSVSKMLDSVISKEERNKER
notes: Roco protein from Chlorobium tepidum (CtRoco), central Roc-COR module, a.a; 412-946; The monomer chain is written; also called CtRoc-COR wt; Roc-COR module; source: E. coli BL21 (DE3), purified (Ni-NTA IMAC, EDTA treatment, Superdex S200 SEC)
Q: How did the binding [10] turn out when B3 was run?
A: binds weakly

Q: What about the binding [11] of the same binder?
A: binds weakly
